Test results as given in patent US5843449A, “Proteins and novel peptides derived from autoantigen for use in immunotherapy of autoimmune diseases” (Akzo Nobel N.V., priority 1996, dated 1998).
Some results were stated once for a whole list of compounds, not compound by compound. Residues, ends and D or L forms follow the SMILES beside them.

How the values were obtained:
[1] = target: T1, DR4Dw4 (DRB1*0401) HLA-DR molecules (Homo sapiens, UniProt P01903+P01911, A100K/A169T/F76Y/I96L/K127E/L162R/M171V/N62H/P40V/Q125Y/R42H/S133A/S149N/S66Y/V115G/V209L/W38E); experiment: HLA-DR peptide binding assay (competition with biotinylated marker peptide), DR4Dw4; details: Table 2
T1 construct: endogenous in cells; host or cells: BSM, EBV-transformed B-cell line

DR4Dw14 HLA-DR molecules = experiment: HLA-DR peptide binding assay (competition with biotinylated marker peptide), DR4Dw14; set-up: species or system human; details: Table 2

Row | SMILES | Binding to DR4Dw4 (in words) [1] | Binding to DR4Dw14 (in words) (DR4Dw14 HLA-DR molecules)
1 | CC(C)[C@H](N)C(=O)NCC(=O)N[C@@H](Cc1ccc(O)cc1)C(=O)N[C@@H](CC(=O)O)C(=O)N[C@@H](CC(=O)O)C(=O)N[C@@H](CCC(N)=O)C(=O)N[C@@H](CCC(=O)O)C(=O)N[C@@H](CO)C(=O)N[C@H](C(=O)N[C@@H](CCCCN)C(=O)N[C@@H](CO)C(=O)N[C@@H](CCCCN)C(=O)N[C@H](C(=O)O)C(C)C)C(C)C [Peptide 3] (H-VGYDDQESVKSKV-OH) | demonstrated | demonstrated
2 | CC(C)C[C@H](NC(=O)[C@@H](NC(=O)[C@H](Cc1ccccc1)NC(=O)[C@H](CO)NC(=O)[C@@H](N)CCCNC(=N)N)[C@@H](C)O)C(=O)N[C@@H](C)C(=O)N[C@@H](CO)C(=O)N[C@@H](CO)C(=O)N[C@@H](CCC(=O)O)C(=O)N[C@H](C(=O)NCC(=O)N[C@H](C(=O)NCC(=O)O)C(C)C)[C@@H](C)O [Peptide 2] (H-RSFTLASSETGVG-OH) | demonstrated | demonstrated
